Experimental data from publication PMC5844530, “Fosmetpantotenate (RE-024), a phosphopantothenate replacement therapy for pantothenate kinase-associated neurodegeneration: Mechanism of action and efficacy in nonclinical models” (PLoS ONE, 2018).

Tested on: PanK2 knockdown cells (acetylated tubulin)
Assay: Western blot analysis of acetylated tubulin
Assay type: cell-based, human
Settings: 1 µM fosmetpantotenate, replicates 1-2
Procedure: After incubation, the cells were lysed in RIPA buffer containing 300 mM NaCl, 10 mM Tris HCl pH 8.0, 10 mM KCl, 1 mM ethylenediaminetetraacetic acid (EDTA), 1% Nonidet-P40, 1% sodium deoxycholate, 0.1% SDS, 1 mM phenylmethanesulfonyl fluoride, and protease inhibitor cocktail (11697498001, Roche, Indianapolis, IN), and sonicated on ice with a Branson 450 sonicator through 2 cycles of ten 2s pulses (1 min pause between cycles). Total protein concentration was determined using a Bio-Rad Protein Assay (500–0006, Biorad, Hercules, CA). Cell extracts were subjected to sodium dodecyl sulfate polyacrylamide gel electrophoresis (SDS-PAGE) analysis (4–12%, NP0335BOX, Life Technologies, Great Island, NY) and transferred to a nitrocellulose membrane (10401396, Whatman, Maidstone, UK). Immunostaining was accomplished by overnight incubation with primary antibodies followed by 1 h of incubation with dye-conjugated secondary antibodies according to the manufacturer’s instructions. Protein detection was achieved using an Infrared Odyssey system (LiCor, Lincoln, NE). Densitometric analysis of western blots was performed using ImageJ software; the statistical significance was determined using a t-test. Actin was used as a normalization probe.

## COC(=O)CCNC(=O)[C@H](O)C(C)(C)COP(=O)(N[C@@H](C)C(=O)OC)Oc1ccccc1 (mixture of isomers) [Fosmetpantotenate]
Experiment 1, DAY 1
  Actin (quantification): 5408.033 and 5159.033
Experiment 1, DAY 3
  Actin (quantification): 4810.74 and 4592.74
Experiment 1, DAY 5
  Actin (quantification): 4608.619 and 5049.962
Experiment 2, DAY 1
  Actin (quantification): 2488.811 and 2436.861
Experiment 2, DAY 3
  Actin (quantification): 2169.355 and 1618.134
Experiment 2, DAY 5
  Actin (quantification): 2220.104 and 2776.861

Several values for one entry are separate records, joined by “and”; a condition that tells them apart may be missing. Equal entries are not always repeated.
